# Taken from: PubChem BioAssay AID1224826 (NIAID, 2016)
# Screen: 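Regulators of Tlr4 signalling leading to Tnf-alpha expression in macrophages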 (primary screen)
# Cell system: RAW264.7 G9 macrophages from mouse bearing reporters for p65 (GFP) and the Tnf promoter (mCherry)
# Knock-down reagent: siRNA pool against mouse genes, 100 nM
# Time to read-out: 16 h of LPS stimulation, after 2 days of siRNA transfection
# Treatment: bacterial lipopolysaccharide (Salmonella minnesota R595), 10 ng/ml
# Measured: 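Imaged Tnf reporter mCherry in nuclei, minus background, normalised per plate to the median and expressed as robust z-scores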
# Scale: Tnf reporter robust z-score: higher = stronger Tnf promoter reporter signal after LPS; Tnf reporter intensity: higher = stronger Tnf promoter reporter signal
# Rule for the call: 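Called active when robust z-score is at most -1.3, matching the median of the Tlr4 knock-down control, or over 3; control wells and wells with under 50 cells never active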
# Calls: active = Tnf reporter clearly lowered or raised; inactive = no clear change in Tnf reporter
# The whole screen tested about 17,000 reagents; this is a part drawn at random. Of all reagents, about 1,110 (6.6%) are marked active. 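Active means lowered or raised reporter signal; replicate intensities are raw and not normalised per plate.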 The numbers tell different reagents against one gene apart.
gene,reagent,Tnf reporter robust z-score,fewer than 50 cells in well,"Tnf reporter intensity, replicate 1","Tnf reporter intensity, replicate 2",activity call
Scaf8,1,0.83,enough cells in well,179,149,inactive
Scaf8,2,-0.67,enough cells in well,137,114,inactive
Slc25a1,1,0.56,enough cells in well,229,190,inactive
Fev,1,-0.59,enough cells in well,191,114,inactive
Acan,1,-0.76,enough cells in well,101,153,inactive
Birc5,1,,fewer than 50 cells per well; well left out of calls,86.3,134,inactive
Gabrb1,1,-1.5,enough cells in well,142,103,active
Sirt6,1,2.17,enough cells in well,215,132,inactive
Plek,1,-0.05,enough cells in well,256,177,inactive
Ark2n,1,0.17,enough cells in well,227,161,inactive
Prkcg,1,0.35,enough cells in well,177,219,inactive
4932425I24RIK,1,1.97,enough cells in well,248,113,inactive
Resp18,1,-1.14,enough cells in well,77.1,80.1,inactive
Enpp3,1,0.37,enough cells in well,239,279,inactive
Carhsp1,1,-1.24,enough cells in well,82.1,121,inactive
Pcdhga7,1,0.48,enough cells in well,172,180,inactive
Ttc8,1,-0.16,enough cells in well,113,54.8,inactive

Reformatted: results already given
gene | reagent | Tnf reporter robust z-score | fewer than 50 cells in well | Tnf reporter intensity, replicate 1 | Tnf reporter intensity, replicate 2 | activity call
Fev | 1 | -0.59 | enough cells in well | 191 | 114 | inactive
Acan | 1 | -0.76 | enough cells in well | 101 | 153 | inactive
Birc5 | 1 | – | fewer than 50 cells per well; well left out of calls | 86.3 | 134 | inactive
Gabrb1 | 1 | -1.5 | enough cells in well | 142 | 103 | active
Sirt6 | 1 | 2.17 | enough cells in well | 215 | 132 | inactive
Plek | 1 | -0.05 | enough cells in well | 256 | 177 | inactive
Ark2n | 1 | 0.17 | enough cells in well | 227 | 161 | inactive

Next results:
gene,reagent,Tnf reporter robust z-score,fewer than 50 cells in well,"Tnf reporter intensity, replicate 1","Tnf reporter intensity, replicate 2",activity call
Tnip1,1,0.07,enough cells in well,250,130,inactive
Ptpn9,1,-1,enough cells in well,155,134,inactive
6430571L13Rik,1,-0.16,enough cells in well,144,205,inactive
Zfp454,1,2.08,enough cells in well,185,242,inactive
Unc45a,1,0.48,enough cells in well,228,163,inactive
Crybb1,1,1.09,enough cells in well,282,317,inactive
Adamts10,1,0.66,enough cells in well,265,217,inactive
Hdac4,1,-1.65,enough cells in well,65.7,74.5,active
Zeb2,1,-0.91,enough cells in well,170,146,inactive
Usp46,1,0.82,enough cells in well,178,228,inactive
Eif4e2,1,0.07,enough cells in well,238,87.1,inactive
Trak2,1,0.62,enough cells in well,203,205,inactive
Tra2a,1,-0.91,enough cells in well,156,60.9,inactive
Tra2a,2,0.79,enough cells in well,211,241,inactive
Vmn2r7,1,0.11,enough cells in well,146,188,inactive
Or1e21,1,-2.17,enough cells in well,54.9,56.9,active
Znrf1,1,-1.03,enough cells in well,124,148,inactive
Syt17,1,1.63,enough cells in well,206,201,inactive
Nudt8,1,0.64,enough cells in well,275,144,inactive
Mrpl35,1,3.57,enough cells in well,431,272,active
Ankrd22,1,0.34,enough cells in well,243,196,inactive
Gpm6b,1,0.99,enough cells in well,297,239,inactive
Pak1ip1,1,0.73,enough cells in well,155,193,inactive
